No constants are given. Whether binding was seen depends on the method and setting. In cells and extracts the contact can be indirect. Some binding calls cover weakened binding; strength is not graded here.
Legend:
[1] = target: T1, IL24 receptor (IL20 R-a + IL20 R-b chains) (human) (UniProt Q9UHF4+Q6UXL0); assay: co-immunoprecipitation from CLL cell lysates with anti-IL20 R-a + anti-IL20 R-b antibodies, Western blot with anti-SHP-1
T1 sequence (looked up) 1: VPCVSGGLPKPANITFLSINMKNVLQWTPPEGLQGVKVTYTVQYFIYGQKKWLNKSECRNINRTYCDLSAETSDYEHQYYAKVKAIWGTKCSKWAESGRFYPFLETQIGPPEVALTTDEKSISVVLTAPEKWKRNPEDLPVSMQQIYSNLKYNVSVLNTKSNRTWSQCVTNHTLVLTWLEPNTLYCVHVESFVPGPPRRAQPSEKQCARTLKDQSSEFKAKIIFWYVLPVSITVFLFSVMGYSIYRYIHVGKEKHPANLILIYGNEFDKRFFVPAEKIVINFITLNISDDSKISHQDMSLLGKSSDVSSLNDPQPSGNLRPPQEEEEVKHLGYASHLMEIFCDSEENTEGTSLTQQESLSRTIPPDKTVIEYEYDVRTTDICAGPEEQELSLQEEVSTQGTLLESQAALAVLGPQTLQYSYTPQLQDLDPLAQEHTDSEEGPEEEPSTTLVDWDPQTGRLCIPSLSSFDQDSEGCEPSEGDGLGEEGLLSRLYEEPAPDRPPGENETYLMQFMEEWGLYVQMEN
T1 sequence (looked up) 2: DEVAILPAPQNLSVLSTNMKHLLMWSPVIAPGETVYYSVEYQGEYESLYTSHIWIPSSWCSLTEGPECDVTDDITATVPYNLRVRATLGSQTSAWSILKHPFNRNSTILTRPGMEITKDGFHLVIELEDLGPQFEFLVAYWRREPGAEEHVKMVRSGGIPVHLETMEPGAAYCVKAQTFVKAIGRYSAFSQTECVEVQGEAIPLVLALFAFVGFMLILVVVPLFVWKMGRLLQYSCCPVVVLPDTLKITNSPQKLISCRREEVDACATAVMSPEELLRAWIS

The chains behind the UniProt entries cited, without tags or fusion partners.
UniProt P29350: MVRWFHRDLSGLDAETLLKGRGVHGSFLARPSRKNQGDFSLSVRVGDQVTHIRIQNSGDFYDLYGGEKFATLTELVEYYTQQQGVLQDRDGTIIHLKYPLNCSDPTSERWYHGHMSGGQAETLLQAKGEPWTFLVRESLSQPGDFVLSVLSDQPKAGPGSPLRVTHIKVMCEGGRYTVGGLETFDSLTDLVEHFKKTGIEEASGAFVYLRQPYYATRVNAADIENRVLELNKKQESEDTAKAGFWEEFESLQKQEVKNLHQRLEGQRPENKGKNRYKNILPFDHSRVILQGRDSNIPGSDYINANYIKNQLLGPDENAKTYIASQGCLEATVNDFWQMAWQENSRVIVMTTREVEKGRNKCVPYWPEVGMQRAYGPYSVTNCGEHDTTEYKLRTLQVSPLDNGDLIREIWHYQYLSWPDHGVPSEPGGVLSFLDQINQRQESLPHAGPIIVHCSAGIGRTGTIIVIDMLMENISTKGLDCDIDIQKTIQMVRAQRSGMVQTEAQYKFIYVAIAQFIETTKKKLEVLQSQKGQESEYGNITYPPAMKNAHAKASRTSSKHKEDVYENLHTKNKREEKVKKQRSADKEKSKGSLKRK

[2] = target: T1, IL24 receptor (IL20 R-a + IL20 R-b chains) (human); assay: co-immunoprecipitation from CLL cell lysates, Western blot (restated in the discussion)

binding [1]: binds
binding [2]: binds
Substance: SHP-1 (src homology-2 containing tyrosine phosphatase 1) (from UniProt P29350 1-595) (enzyme)

Reference: patent EP2050458A1, “IL24 for inducing hyperproliferative or autoimmune cell death” (INSTITUT NATIONAL DE LA SANTE ET DE LA RECHERCHE MEDICALE …, priority 2007, dated 2009)
